Measured values taken from paper PMC10638354.
Results are given in words; binding and its absence hold for the method and conditions named. For some of these results: Binding seen in cells or lysates may run through a third protein. Some entries that bind do so weakly or less than the wild type. For some of these results: Where a sequence is shown, tags or fusion partners need not be part of it.

Protein sequences, listed by entry. Tags and fused reporters are not part of them.
UniProt P04608: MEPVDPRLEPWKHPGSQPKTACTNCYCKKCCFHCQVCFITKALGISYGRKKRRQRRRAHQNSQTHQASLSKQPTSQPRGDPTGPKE

Columns and labels:
[1] = target: T1, AFF4 ectopically expressed in cells (UniProt Q9UHB7); assay: co-IP; in cells; cell line and constructs not named in the text (Supplementary Fig. 6k-l, 7a, b, f); for Tat and NPM1 with PRMT2 expressed or depleted
T1 sequence: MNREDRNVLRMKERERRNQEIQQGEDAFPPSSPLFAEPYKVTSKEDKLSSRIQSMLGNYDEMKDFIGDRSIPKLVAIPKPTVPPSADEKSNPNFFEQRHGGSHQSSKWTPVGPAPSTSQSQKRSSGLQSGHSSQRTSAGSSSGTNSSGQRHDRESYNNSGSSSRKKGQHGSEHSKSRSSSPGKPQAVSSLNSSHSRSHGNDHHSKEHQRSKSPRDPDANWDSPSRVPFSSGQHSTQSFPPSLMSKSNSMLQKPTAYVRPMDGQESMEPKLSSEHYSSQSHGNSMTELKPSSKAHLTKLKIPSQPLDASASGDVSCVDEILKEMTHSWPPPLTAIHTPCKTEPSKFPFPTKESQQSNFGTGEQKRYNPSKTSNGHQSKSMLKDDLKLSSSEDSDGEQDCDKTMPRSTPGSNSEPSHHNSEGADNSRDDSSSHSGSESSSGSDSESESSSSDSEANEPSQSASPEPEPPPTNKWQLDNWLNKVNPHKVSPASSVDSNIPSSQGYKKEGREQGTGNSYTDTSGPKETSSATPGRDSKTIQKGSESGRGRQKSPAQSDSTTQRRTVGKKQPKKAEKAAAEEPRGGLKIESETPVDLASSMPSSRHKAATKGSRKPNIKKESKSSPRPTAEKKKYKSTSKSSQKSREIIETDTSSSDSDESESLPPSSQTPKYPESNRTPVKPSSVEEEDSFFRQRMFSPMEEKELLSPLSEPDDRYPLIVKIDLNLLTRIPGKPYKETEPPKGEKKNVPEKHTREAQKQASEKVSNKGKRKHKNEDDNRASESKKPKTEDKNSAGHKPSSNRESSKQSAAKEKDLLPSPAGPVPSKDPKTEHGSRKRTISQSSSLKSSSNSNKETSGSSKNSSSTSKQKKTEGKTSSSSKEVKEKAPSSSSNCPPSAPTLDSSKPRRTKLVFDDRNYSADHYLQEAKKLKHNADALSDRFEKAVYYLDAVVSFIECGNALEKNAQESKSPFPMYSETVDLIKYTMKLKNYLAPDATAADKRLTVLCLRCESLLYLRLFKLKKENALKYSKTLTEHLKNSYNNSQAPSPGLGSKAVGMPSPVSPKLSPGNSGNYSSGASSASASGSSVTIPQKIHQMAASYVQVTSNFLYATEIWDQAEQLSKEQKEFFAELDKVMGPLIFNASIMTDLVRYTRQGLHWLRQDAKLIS

[2] = target: T2, GST-PRMT2 (UniProt P55345); assay: pull-down; GST or GST fusion proteins (Rosetta) immobilized on glutathione sepharose 4B beads, incubated 3 h at 4 °C with His-tagged proteins (Rosetta, Ni-NTA) in RIPA buffer with 1 mM MgCl2; washed with RIPA buffer; Coomassie staining or western blotting; both purified
T2 sequence: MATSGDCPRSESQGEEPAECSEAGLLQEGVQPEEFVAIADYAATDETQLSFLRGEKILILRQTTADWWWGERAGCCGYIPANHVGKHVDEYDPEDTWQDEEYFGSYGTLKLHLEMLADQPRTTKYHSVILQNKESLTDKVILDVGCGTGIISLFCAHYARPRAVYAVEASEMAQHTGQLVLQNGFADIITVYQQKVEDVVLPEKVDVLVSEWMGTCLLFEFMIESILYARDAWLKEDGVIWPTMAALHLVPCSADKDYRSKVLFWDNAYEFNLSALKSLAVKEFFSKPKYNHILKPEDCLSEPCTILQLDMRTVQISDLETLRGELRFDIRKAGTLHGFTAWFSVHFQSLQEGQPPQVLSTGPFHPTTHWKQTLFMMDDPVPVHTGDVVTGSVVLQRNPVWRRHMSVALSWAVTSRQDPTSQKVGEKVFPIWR

[3] = target: recombinant AFF4 (E61A, M62A and F65A) (UniProt Q9UHB7); assay: as above
[4] = target: T3, recombinant AFF4 (UniProt Q9UHB7); assay: as above
T3 sequence: T1 sequence

## Flag-Tat (HIV-1 Tat) (from UniProt P04608 1-86)
[1]
  binding: binds

## recombinant his-Tat (from UniProt P04608 1-86)
[2]
  binding: binds
[3]
  binding: no binding
[4]
  binding: binds
